Reference: PubChem BioAssay AID2417 (National Center for Advancing Translational Sciences (NCATS), 2010)
The campaign covered roughly 140,000 compounds. About 4,300 (3.1%) were called active. Inconclusive means that the source gave no clear call. Such entries were picked first, then a sample of the others.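 The calls were made as follows: active = readout at or below -70, meaning at least 70% loss of cells showing the perinucleolar compartment, a nuclear body marking cancer cells; inconclusive = readout between -30 and a set limit; inactive = the rest.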

Assay: High Content Assay for Compounds that inhibit the Assembly of the Perinucleolar Compartment;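 also: plate controls were DMSO wells for no effect and camptothecin positive control wells for full effect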
Details: PC3M PTB-GFP, PNC prevalence imaging, 16 h; at 10 µM; stronger effect = lower value
In short: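 PC3M cells stably expressing PTB-GFP, 750–1000 cells/well, treated 16 h at 37 °C with compound (23 nl of library stock), in duplicate. After paraformaldehyde fixation and Hoechst stain, imaged at 20x; PNC prevalence scored by image analysis.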
In the case of Nc1nonc1-c1nc2ccccc2n1CC(=O)N1CCCCC1, the activity change (PNC), negative = inhibition is reported as inconclusive: -42.5%. With Fc1ccc2[nH]c3c(N4CCN(C5CCCCC5)CC4)ncnc3c2c1 the activity change (PNC), negative = inhibition was inconclusive: -37.5%. In the case of CC(=O)c1ccc(NC(=O)c2ccn(C(=O)OCC(C)C)n2)cc1, the activity change (PNC), negative = inhibition is reported as inactive: -14.6%. With CCCCNC(=O)c1cc(-c2ccc(F)cc2)on1 the activity change (PNC), negative = inhibition was inconclusive: -65.3%. For Cc1nnc(SC(C)C(=O)NCC2CCCO2)n1-c1ccccc1 (stereo not given), the activity change (PNC), negative = inhibition was inconclusive: -39.7%. With COc1ccc(-c2csc(NC(=O)CN3C(=O)CCC3=O)n2)c(OC)c1 the activity change (PNC), negative = inhibition was inconclusive: -50.3%. For O=C1c2ccccc2C(=O)N1CCCCSc1nnnn1-c1ccccc1, the activity change (PNC), negative = inhibition was inactive: 17.6%. For CCOc1ccc(C(=O)NC(=S)Nc2ccc(NC(=O)CC)cc2)cc1[N+](=O)[O-], the activity change (PNC), negative = inhibition was inconclusive: -39.2%. With CCOc1nc(N=C(N)N)nc2c(C)cccc12 the activity change (PNC), negative = inhibition was inconclusive: -41.3%. For CCC(Oc1ccccc1)C(=O)NCc1ccc(S(N)(=O)=O)cc1 (stereo not given), the activity change (PNC), negative = inhibition was inactive: 25.2%. For CCCCn1nc2cc(C(=O)NCc3ccccc3OC)ccc2c1OCC, the activity change (PNC), negative = inhibition was inconclusive: -62.9%. In the case of CCCN=Cc1sc2ccc(OCC)cc2c1O, the activity change (PNC), negative = inhibition is reported as inactive: 9.37%. For Brc1ccc(-c2csc(NNC3=NCCCCC3)n2)cc1, the activity change (PNC), negative = inhibition was inactive: -21.8%. For Cc1ccc(C)c(OCCn2cc(/C=C(\C#N)C(=O)NCc3cccs3)c3ccccc32)c1, the activity change (PNC), negative = inhibition was inconclusive: -40.1%. In the case of CCOc1ccccc1NC(=O)COC(=O)CNS(=O)(=O)c1ccc(C)cc1, the activity change (PNC), negative = inhibition is reported as active: -116%. For Clc1ccc(-c2nnc(CCc3ccccc3)o2)c(Cl)c1, the activity change (PNC), negative = inhibition was inconclusive: -37.8%. For CCOC(=O)C(C)Sc1nc2c(c(-c3cccs3)c1C#N)CCC2 (stereo not given), the activity change (PNC), negative = inhibition was inconclusive: -45.5%. For CCCCC(O)(CCN1CCOCC1)c1ccc(Cl)cc1 (stereo not given), the activity change (PNC), negative = inhibition was inactive: 41.2%. With CCC1=NN=C(c2ccc(F)cc2)C(c2c[nH]c3ccccc23)N1O (stereo not given) the activity change (PNC), negative = inhibition was active: -100%. With Cc1cc(NC(=O)CCCSc2nc(-c3ccco3)cc(C(F)(F)F)n2)no1 the activity change (PNC), negative = inhibition was inactive: 35.1%. For CCOC(=O)c1c(N)sc2c(OCC)c(Br)ccc12, the activity change (PNC), negative = inhibition was inactive: 39.9%. For COC(=O)/C(=C/c1c[nH]c2ccccc12)[N+](=O)[O-], the activity change (PNC), negative = inhibition was inactive: -26.9%. For NC(=O)c1cc2cc(Cl)ccc2oc1=Nc1cccc(C(F)(F)F)c1, the activity change (PNC), negative = inhibition was inactive: 7.37%. With CCOC(=O)c1ccccc1NC(=O)c1cn(CC)c2nc(C)ccc2c1=O the activity change (PNC), negative = inhibition was inconclusive: -51.5%. With CCn1c(SCC(=O)Nc2nc3ccc(OC)cc3s2)nnc1-c1ccoc1C the activity change (PNC), negative = inhibition was inconclusive: -37.7%. In the case of CN(C)Cc1nc2ccccc2c(=O)n1Cc1nc(-c2cc3ccccc3o2)cs1, the activity change (PNC), negative = inhibition is reported as inactive: 3.37%. For CC1=C(C(=O)Nc2ccccc2)C2(CCCCC2)C(C#N)=C(SCC(N)=O)N1, the activity change (PNC), negative = inhibition was inactive: 20.8%. For COc1ccc(CCNC(=O)Cc2cccs2)cc1, the activity change (PNC), negative = inhibition was inactive: -19.2%. In the case of Cc1ccc(C(=O)NC(=S)Nn2cnnc2)cc1, the activity change (PNC), negative = inhibition is reported as inactive: -19.9%. With CC(=O)N(C)c1ccc(NC(=O)/C=C/c2ccccc2Cl)cc1 the activity change (PNC), negative = inhibition was inconclusive: -67.2%. With CCC1Oc2ccccc2N(CC(=O)Nc2ccc3c(c2)OCCO3)C1=O (stereo not given) the activity change (PNC), negative = inhibition was active: -94.1%. In the case of CC(=O)c1cc(Cc2csc(C(C)=O)c2)cs1, the activity change (PNC), negative = inhibition is reported as active: -100%. For Nc1c(S(=O)(=O)c2ccccc2)cnc2c(-c3ccc(F)cc3)cnn12, the activity change (PNC), negative = inhibition was inconclusive: -30.4%. With Cc1cc(C)cc(-n2c(C)cc(/C=N/NC(=O)CN(c3c(C)cccc3C)S(C)(=O)=O)c2C)c1 the activity change (PNC), negative = inhibition was inactive: -18.5%. With O=C(CSCc1ccc(Cl)cc1)N1CCN(Cc2ccc3c(c2)OCO3)CC1 the activity change (PNC), negative = inhibition was active: -86.5%. In the case of CCC/C=N/NC(=O)c1cc(Br)ccc1O, the activity change (PNC), negative = inhibition is reported as inactive: -10.3%. With COc1ccc(CCNC(=O)C2CCN(Cc3nc(-c4ccccc4C)oc3C)CC2)cc1OC the activity change (PNC), negative = inhibition was inconclusive: -43.7%. For COc1ccc(C(c2nnnn2C(C)(C)C)N2CCN(C)CC2)cc1OC (stereo not given), the activity change (PNC), negative = inhibition was inconclusive: -46%. In the case of CCCCSc1nnc2c(n1)[nH]c1ccccc12, the activity change (PNC), negative = inhibition is reported as inconclusive: -31.1%. With CCN(CC)CCCN1C(=O)C(=O)/C(=C(/O)c2ccc(C)cc2)C1c1ccccn1 (stereo not given) the activity change (PNC), negative = inhibition was inconclusive: -34.9%. With O=C(N/N=C/c1ccc(OCc2ccccc2)cc1)c1cccs1 the activity change (PNC), negative = inhibition was inactive: 61.6%. For COc1ccc(-c2c/c(=N\c3nc(-c4ccccc4)c(C)s3)c3ccccc3o2)cc1O, the activity change (PNC), negative = inhibition was inconclusive: -59.5%. With Cc1ccc(NC(=O)CCC(=O)OCC(=O)c2ccc(Oc3ccc([N+](=O)[O-])cc3)cc2)cc1 the activity change (PNC), negative = inhibition was inactive: 39.9%. For O=C(c1ccco1)N1CCN(CCOCCOc2cccc3ccccc23)CC1, the activity change (PNC), negative = inhibition was active: -80.3%. In the case of O=C(Cn1nc(-c2ccc(Cl)cc2)ccc1=O)NCCCN1CCN(Cc2ccccc2)CC1, the activity change (PNC), negative = inhibition is reported as inactive: 16.6%.
